Literature values in patent US20110020272A1, “COMBINATION THERAPY FOR TREATING HEPATITIS VIRAL INFECTION” (priority 2009, published 2011).
Like-named read-outs stand apart in the source and are kept apart here. For part of these data: At least one compound was matched to its structure with a doubt left. Some of these results come from one statement about several compounds together.

What was measured:
Details in all cases: cited from earlier work
HCV = system: HCV
HCV genotype 1 = system: HCV genotype 1
[1] = system: chymotrypsin, trypsin, elastase and Factors Xa, Xia and VIIa

CC[C@@H]1C[C@]1(NC(=O)[C@@H]1C[C@@H]2CN1C(=O)[C@H](C(C)(C)C)NC(=O)OCC(C)(C)CCCCc1cccc3c1CN(C3)C(=O)O2)C(=O)NS(=O)(=O)C1CC1 [MK-7009]
rapid virologic rate (HCV; 28 days, triple therapy with pegylated interferon-alpha/ribavirin vs standard of care, treatment naïve): 68.8-82.4%

CC(C)(C)NC(=O)N[C@H](C(=O)N1C[C@H]2[C@@H]([C@H]1C(=O)NC(CC1CCC1)C(=O)C(N)=O)C2(C)C)C(C)(C)C (stereo partly drawn) [boceprevir]
sustained virologic response rate, HCV SPRINT-1 (HCV genotype 1; low dose ribavirin arm): 36% | sustained virologic response rate, HCV SPRINT-1 (HCV genotype 1; triple combination with PEG-interferon alpha-2b and ribavirin, 48 weeks, with 4 weeks PEG-interferon-alpha2b/ribavirin lead-in, treatment naïve): 75% | sustained virologic response rate, HCV SPRINT-1 (HCV genotype 1; triple combination, 48 weeks, without lead-in, treatment naïve): 67%

COc1cc(C2Oc3cc([C@H]4Oc5cc(O)cc(O)c5C(=O)[C@@H]4O)ccc3OC2CO)ccc1O (stereo partly drawn) [silibinin]
patients achieving undetectable HCV RNA plasma levels (HCV; 20 mg/kg/d intravenously for 15 days added to PEG-interferon alpha-2a/ribavirin after 24 weeks HCV-RNA positive): 7 out of 9

COC[C@H](NC(=O)C1CN=C(C)S1)C(=O)N[C@@H](COC)C(=O)N[C@@H](Cc1ccccc1)C(=O)[C@@]1(C)CO1 (stereo partly drawn) [Compound 13]
selectivity against chymotrypsin, trypsin, elastase and Factors Xa, Xia and VIIa [1]: > 100 fold
